Results are given in words; binding and its absence hold for the method and conditions named. Binding seen in cells or lysates may run through a third protein. These calls come from enrichment with a bait or labelling near it, and not all partners need be listed.
Tests used:
Experiment in all cases: affinity purification with mass spectrometry; M protein (5 ug/mL) added to human plasma diluted 1:10 in D-PBS from five healthy donors, 1 h at room temperature; complexes pelleted at 12,000 x g for 1 min, washed, analysed by DIA-MS; only the target purified
[1] = molecular target: M3 protein (Streptococcus pyogenes) (UniProt Q54841)
[2] = molecular target: T1, M5 protein (Streptococcus pyogenes) (UniProt P02977)
T1 sequence: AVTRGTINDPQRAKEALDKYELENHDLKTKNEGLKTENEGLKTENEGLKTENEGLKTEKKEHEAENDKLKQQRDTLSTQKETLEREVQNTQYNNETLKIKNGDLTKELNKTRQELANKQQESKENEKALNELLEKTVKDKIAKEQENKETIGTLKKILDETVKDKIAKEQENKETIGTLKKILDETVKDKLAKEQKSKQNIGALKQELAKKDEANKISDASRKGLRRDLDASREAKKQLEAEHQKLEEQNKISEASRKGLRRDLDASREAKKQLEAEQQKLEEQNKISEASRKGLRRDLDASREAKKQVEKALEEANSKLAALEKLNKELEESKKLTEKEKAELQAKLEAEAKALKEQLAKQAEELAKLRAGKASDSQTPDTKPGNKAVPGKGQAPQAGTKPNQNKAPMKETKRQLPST

Amino acid sequences for entries named in this document (tags omitted). A change or cut given only in a name is not applied to a line headed by its entry. Residues count along the entry.
UniProt Q54841: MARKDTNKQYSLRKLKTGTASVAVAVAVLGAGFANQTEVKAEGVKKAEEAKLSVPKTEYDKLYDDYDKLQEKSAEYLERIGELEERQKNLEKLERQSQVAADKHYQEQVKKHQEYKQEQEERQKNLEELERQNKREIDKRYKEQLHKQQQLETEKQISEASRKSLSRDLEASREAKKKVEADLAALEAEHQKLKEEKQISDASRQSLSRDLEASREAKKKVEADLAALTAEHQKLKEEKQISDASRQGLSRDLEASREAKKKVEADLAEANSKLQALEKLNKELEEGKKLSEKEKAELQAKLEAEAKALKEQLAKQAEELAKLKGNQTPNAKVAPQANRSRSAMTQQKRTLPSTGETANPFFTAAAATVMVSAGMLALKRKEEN
UniProt P16947, residues 42-359: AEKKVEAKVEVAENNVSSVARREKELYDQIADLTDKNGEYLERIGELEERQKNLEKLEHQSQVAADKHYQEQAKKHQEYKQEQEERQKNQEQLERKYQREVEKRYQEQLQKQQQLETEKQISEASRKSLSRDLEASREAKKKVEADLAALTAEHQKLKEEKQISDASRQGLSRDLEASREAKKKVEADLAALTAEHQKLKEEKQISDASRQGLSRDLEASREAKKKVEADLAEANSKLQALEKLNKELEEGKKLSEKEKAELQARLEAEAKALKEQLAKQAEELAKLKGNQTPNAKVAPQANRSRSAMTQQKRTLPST
UniProt P02671: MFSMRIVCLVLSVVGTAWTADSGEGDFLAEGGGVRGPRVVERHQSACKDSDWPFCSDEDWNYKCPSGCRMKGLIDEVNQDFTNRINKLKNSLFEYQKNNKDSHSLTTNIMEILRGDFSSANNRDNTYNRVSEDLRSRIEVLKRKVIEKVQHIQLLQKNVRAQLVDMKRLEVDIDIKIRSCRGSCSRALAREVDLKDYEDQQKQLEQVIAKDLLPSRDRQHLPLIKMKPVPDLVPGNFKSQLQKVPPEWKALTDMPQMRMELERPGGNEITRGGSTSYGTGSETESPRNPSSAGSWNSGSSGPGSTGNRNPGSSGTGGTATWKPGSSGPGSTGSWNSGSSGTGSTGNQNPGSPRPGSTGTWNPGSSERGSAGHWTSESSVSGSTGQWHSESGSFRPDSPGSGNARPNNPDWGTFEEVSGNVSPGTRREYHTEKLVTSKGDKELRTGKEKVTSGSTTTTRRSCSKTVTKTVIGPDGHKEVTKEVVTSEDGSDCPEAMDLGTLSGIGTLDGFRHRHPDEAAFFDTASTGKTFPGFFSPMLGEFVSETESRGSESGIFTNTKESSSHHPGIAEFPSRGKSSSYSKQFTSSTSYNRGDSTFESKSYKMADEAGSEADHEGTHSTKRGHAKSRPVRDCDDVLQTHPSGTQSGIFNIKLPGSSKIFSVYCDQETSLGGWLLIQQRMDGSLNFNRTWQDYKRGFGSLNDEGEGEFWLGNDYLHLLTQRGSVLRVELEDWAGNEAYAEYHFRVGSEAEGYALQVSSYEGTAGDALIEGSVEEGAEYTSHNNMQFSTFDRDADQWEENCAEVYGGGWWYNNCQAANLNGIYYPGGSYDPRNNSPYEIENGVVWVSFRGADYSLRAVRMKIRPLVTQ
UniProt P02768, residues 25-609: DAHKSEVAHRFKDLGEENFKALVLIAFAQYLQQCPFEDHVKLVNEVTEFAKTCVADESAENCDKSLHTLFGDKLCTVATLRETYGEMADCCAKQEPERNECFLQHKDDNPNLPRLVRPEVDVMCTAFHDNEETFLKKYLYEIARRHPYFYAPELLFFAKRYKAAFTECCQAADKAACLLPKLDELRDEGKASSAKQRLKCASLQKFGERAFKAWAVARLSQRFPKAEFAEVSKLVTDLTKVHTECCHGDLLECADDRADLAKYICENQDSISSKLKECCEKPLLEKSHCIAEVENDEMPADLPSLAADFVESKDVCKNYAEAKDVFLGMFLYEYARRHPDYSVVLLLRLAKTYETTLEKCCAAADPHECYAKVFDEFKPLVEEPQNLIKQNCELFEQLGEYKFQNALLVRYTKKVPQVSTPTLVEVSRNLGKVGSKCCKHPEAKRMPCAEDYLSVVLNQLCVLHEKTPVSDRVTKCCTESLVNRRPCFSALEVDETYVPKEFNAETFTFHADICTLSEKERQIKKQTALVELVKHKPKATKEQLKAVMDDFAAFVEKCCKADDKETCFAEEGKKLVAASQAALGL

[3] = molecular target: M1 protein (Streptococcus pyogenes) (UniProt Q99XV0)
[4] = molecular target: M49 protein (Streptococcus pyogenes) (UniProt P16947)
[5] = molecular target: M28 protein (Streptococcus pyogenes) (UniProt Q54841)
[6] = molecular target: M89 protein (Streptococcus pyogenes) (UniProt Q54841)

Measured: binding

human fibrinogen (from UniProt P02671 36-866; P02675 45-491; P02679 27-453)
binds: [1] | [2] | [3]

albumin (from UniProt P02768 25-609)
binds: [4] | [5] | [1] | [2] | [6] | [3]

From paper PMC8852700
